In paper PMC7549001:
Results are given in words; binding and its absence hold for the method and conditions named. Binding seen in cells or lysates may run through a third protein. A result given as binding can be weak or reduced; the word gives no strength. Tags and fused reporters may be left off the sequences shown.

Chains of the proteins cited; added tags and fusions are not shown. Lines headed by an entry give the natural chain unless they say otherwise; changes in a name come on top.
UniProt Q6JAC7: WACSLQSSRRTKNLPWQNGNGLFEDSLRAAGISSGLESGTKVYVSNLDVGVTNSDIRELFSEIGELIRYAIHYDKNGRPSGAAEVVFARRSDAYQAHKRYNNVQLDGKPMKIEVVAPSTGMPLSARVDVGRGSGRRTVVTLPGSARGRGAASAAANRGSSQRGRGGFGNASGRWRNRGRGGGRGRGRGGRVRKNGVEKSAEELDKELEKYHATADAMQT

B1: P25 as BiFC fusion (P25-nYFP and P25-cYFP) (protein, UniProt P09396 1-226)
chain: MDILIISLKSLGYSRTHKSLDSGPLVVHAVAGAGKSTALRKLILRHPTFTVHTLGVPDKVSIRTRGIQKPGPIPEGNFAILDEYTLDNTTRNSYQALFADPYQAPEFSLEPHFYLETSFRVPRKVADLIAGCGFDFETNSQEEGHLEITGIFKGPLLGKVIAIDEESETTLSKHGVEFVKPCQVTGLEFKVVTVVSAAPIEEIGQSTAFYNAITRSKGLTYVRAGT
B2: PVX P25 (untagged) (protein, UniProt P09396 1-226)
chain: MDILIISLKSLGYSRTHKSLDSGPLVVHAVAGAGKSTALRKLILRHPTFTVHTLGVPDKVSIRTRGIQKPGPIPEGNFAILDEYTLDNTTRNSYQALFADPYQAPEFSLEPHFYLETSFRVPRKVADLIAGCGFDFETNSQEEGHLEITGIFKGPLLGKVIAIDEESETTLSKHGVEFVKPCQVTGLEFKVVTVVSAAPIEEIGQSTAFYNAITRSKGLTYVRAGT

Tests used:
[1] = target: NbALY916-nYFP (Nicotiana benthamiana) (UniProt Q6JAC7); test: split reporter; BiFC with halves of YFP; agroinfiltration of H2B-RFP transgenic N. benthamiana leaves; fluorescence at 72 hr postinfiltration
[2] = target: NbALY916-GFP (Nicotiana benthamiana) (UniProt Q6JAC7); test: co-IP; NbALY916-GFP or free GFP with P25 transiently expressed in N. benthamiana; GFP-TRAP_M beads on infiltrated leaf extract; blots with anti-GFP and anti-P25

Row | Binder | binding [1] | binding [2]
1 | B1 | binds | 
2 | B2 |  | binds
